Results on 31 compounds are retold here after the supplement of paper PMC4604168 (melanoma cell lines).

SMILES strings stand for the structures. The list shows a part of the results. Repeats are few or missing, and single values can be far off.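 The apoptosis fraction was the count of cleaved-PARP antibody-stained nuclei relative to all DNA-stained nuclei, imaged in 1,536-well plates. Screening doses were set so most cells survived, and baseline and induced cleaved-PARP levels vary greatly across cell lines.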

One assay concerns SkMel28. As to the kind of experiment: cleaved PARP positive nuclei fraction relative to DMSO control; melanoma cells; higher = more apoptosis. As to conditions: library dose: low library concentration; 72 h.
On to `Cc1cc(Nc2cc(N3CCN(C)CC3)nc(/C=C/c3ccccc3)n2)n[nH]1` + CC(C)CCN1c2nc(Nc3cc(F)c(O)c(F)c3)ncc2N(C)C(=O)C1C [BID1870] (first compound 0.04 µM, partner dose 0.2 µM), for which the “cleaved PARP positive nuclei fraction” value was 103%.
Still for that read-out and setting: then `CN1CCN(c2ccc3nc(-c4c(N)c5c(F)cccc5[nH]c4=O)[nH]c3c2)CC1` [Dovitinib] + CN(C)S(=O)(=O)c1ccc2c(c1)/C(=C/c1cc3c([nH]1)CCCC3)C(=O)N2 [SU6656] (first compound 0.1 µM, partner dose 0.4 µM), with 149%; and `CC(C)C[C@H](NC(=O)[C@H](Cc1ccccc1)NC(=O)c1cnccn1)B(O)O` [Bortezomib] + COc1cc2ncnc(Nc3ccc(Oc4ccccc4)cc3)c2cc1OC [SrcI1] (first compound 0.001 µM, partner dose 2 µM), with 214%.
On the same count and under the same terms, the result for `CC(C)C[C@H](NC(=O)[C@H](Cc1ccccc1)NC(=O)c1cnccn1)B(O)O` [Bortezomib] + C[C@@H]1CCN(C(=O)CC#N)C[C@@H]1N(C)c1ncnc2[nH]ccc12 [CP690550] (first compound 0.001 µM, partner dose 1 µM) reads 81.3%.
As for `CNC(=O)c1cc(Oc2ccc(NC(=O)Nc3ccc(Cl)c(C(F)(F)F)c3)cc2)ccn1` [sorafenib] + c1cc(-c2cnn3cc(-c4ccc(OCCN5CCCCC5)cc4)cnc23)ccn1 [Dorsomorphin] (first compound 0.4 µM, partner dose 0.4 µM), the “cleaved PARP positive nuclei fraction” value stood at 134%.
Still for that read-out and setting: the result for `O=C(O)c1ccc2c(c1)nc(Nc1cccc(Cl)c1)c1ccncc12` + O=C(Nc1cccc(Cl)c1)Nc1ncc(CCNc2ncnc3ccsc23)s1 [SNS314] (first compound 0.4 µM, partner dose 0.0008 µM) reads 27.4%; that for `CCCS(=O)(=O)Nc1ccc(F)c(C(=O)c2c[nH]c3ncc(Cl)cc23)c1F` + CCc1ccc(CCOc2ccc(CC3SC(=O)NC3=O)cc2)nc1 [pioglitazone] (first compound 0.08 µM, partner dose 2 µM), 80.1%.
The same measure, in the same setting: then `O=C(O)c1ccc2c(c1)nc(Nc1cccc(Cl)c1)c1ccncc12` + CC(C)(C)c1cnc(CSc2cnc(NC(=O)C3CCNCC3)s2)o1 [SNS-032] (first compound 0.4 µM, partner dose 0.01 µM), with 186%; and `CN1CCN(c2ccc3nc(-c4c(N)c5c(F)cccc5[nH]c4=O)[nH]c3c2)CC1` [Dovitinib] + NC(=O)Nc1cc(-c2cccc(F)c2)sc1C(=O)N[C@H]1CCCNC1 [AZD7762] (first compound 0.1 µM, partner dose 0.02 µM), with 95.6%; and `O=C(O)[C@@H]1[O][Sb](=[O])([O][Sb]2(=[O])[O][C@H]([C@H](O)CO)[C@H](O)[C@H](C(=O)O)[O]2)[O][C@H]([C@H](O)CO)[C@@H]1O` (stereo partly specified) [stibogluconate] + OCCn1cc(-c2cnc3nnn(Cc4ccc5ncccc5c4)c3n2)cn1 [PF04217903] (first compound 2 µM, partner dose 1 µM), with 28.5%.
Turning to `CS(=O)(=O)CCNCc1ccc(-c2ccc3ncnc(Nc4ccc(OCc5cccc(F)c5)c(Cl)c4)c3c2)o1` [lapatinib] + COc1ccc(COc2ccc(Cc3cnc(N)nc3N)cc2OC)cc1 [GW2580] (first compound 0.8 µM, partner dose 1 µM), the “cleaved PARP positive nuclei fraction” value was determined as 106%.

The next assay deals with SkMel2. The description is as above. To be noted: library dose: low library concentration; 72 h.
As to `C=C(c1ccc(C(=O)O)cc1)c1cc2c(cc1C)C(C)(C)CCC2(C)C` [Bexarotene] + CC(C)(C)c1cnc(CSc2cnc(NC(=O)C3CCNCC3)s2)o1 [SNS-032] (first compound 2 µM, partner dose 0.01 µM), the “cleaved PARP positive nuclei fraction” value turned out to be 82%.
With `Cc1cc(Nc2cc(N3CCN(C)CC3)nc(/C=C/c3ccccc3)n2)n[nH]1` + COc1cc(N2CCC(N3CCN(C)CC3)CC2)ccc1Nc1ncc(Cl)c(Nc2ccccc2S(=O)(=O)C(C)C)n1 [NVP-TAE684] (first compound 0.04 µM, partner dose 0.08 µM), the “cleaved PARP positive nuclei fraction” value was found to be 163%.
On the same count and under the same terms, the result for `O=C(O)c1ccc2c(c1)nc(Nc1cccc(Cl)c1)c1ccncc12` + Oc1nc(-c2ccc(C(F)(F)F)cc2)nc2c1CSCC2 [XAV939] (first compound 0.4 µM, partner dose 2 µM) reads 73.7%.
On the same count and under the same terms, then `Nc1ccn([C@@H]2O[C@H](CO)[C@@H](O)C2(F)F)c(=O)n1` [gemcitabine] + COC(=O)c1sccc1S(=O)(=O)Nc1ccc(Nc2ccccc2)cc1OC [GSK0660] (first compound 0.0004 µM, partner dose 1 µM), with 120%; and `CNC(=O)c1cc(Oc2ccc(NC(=O)Nc3ccc(Cl)c(C(F)(F)F)c3)cc2)ccn1` [sorafenib] + CC(C)(C)c1cnc(CSc2cnc(NC(=O)C3CCNCC3)s2)o1 [SNS-032] (first compound 0.4 µM, partner dose 0.01 µM), with 179%; and `Nc1ccn([C@@H]2O[C@H](CO)[C@@H](O)C2(F)F)c(=O)n1` [gemcitabine] + OCCn1cc(-c2cnc3nnn(Cc4ccc5ncccc5c4)c3n2)cn1 [PF04217903] (first compound 0.0004 µM, partner dose 1 µM), with 154%.
On the same count and under the same terms, the result for `C=C(c1ccc(C(=O)O)cc1)c1cc2c(cc1C)C(C)(C)CCC2(C)C` [Bexarotene] + Cc1ccc(NC(=O)c2cccc(N(C)C)c2)cc1NC(=O)c1ccc(O)cc1 [ZM336372] (first compound 2 µM, partner dose 2 µM) reads 81.7%.
In the case of `Nc1nc(F)nc2c1ncn2[C@@H]1O[C@H](CO)[C@@H](O)[C@@H]1O` [fludarabine] + C=CCn1c(=O)c2cnc(Nc3ccc(N4CCN(C)CC4)cc3)nc2n1-c1cccc(C(C)(C)O)n1 [MK1775] (first compound 0.2 µM, partner dose 0.02 µM), the “cleaved PARP positive nuclei fraction” value was determined as 387%.
Still for that read-out and setting: the result for `Cc1cc(Nc2cc(N3CCN(C)CC3)nc(/C=C/c3ccccc3)n2)n[nH]1` + Cn1cc(/C=C2\C(=O)Nc3cccnc32)c2ccccc21 [GW441756] (first compound 0.04 µM, partner dose 0.4 µM) reads 133%; that for `CC(C)C[C@H](NC(=O)[C@H](Cc1ccccc1)NC(=O)c1cnccn1)B(O)O` [Bortezomib] + c1cc(-c2cnn3cc(-c4ccc(OCCN5CCCCC5)cc4)cnc23)ccn1 [Dorsomorphin] (first compound 0.001 µM, partner dose 0.4 µM), 65.9%; that for `Nc1ncn([C@H]2C[C@H](O)[C@@H](CO)O2)c(=O)n1` [decitabine] + Cc1cc([N+](=O)[O-])ccc1NS(=O)(=O)c1cc(Cl)ccc1Cl [FH535] (first compound 0.1 µM, partner dose 1 µM), 81.7%.
As to `Nc1ncn([C@H]2C[C@H](O)[C@@H](CO)O2)c(=O)n1` [decitabine] + O=C(Nc1cccc(Cl)c1)Nc1ncc(CCNc2ncnc3ccsc23)s1 [SNS314] (first compound 0.1 µM, partner dose 0.0008 µM), the “cleaved PARP positive nuclei fraction” value came out at 89.9%.
Consider `CS(=O)(=O)CCNCc1ccc(-c2ccc3ncnc(Nc4ccc(OCc5cccc(F)c5)c(Cl)c4)c3c2)o1` [lapatinib] + COc1ccc2c(c1)CCC1C2CCC2(C)C(NCCCCCCN3C(=O)C=CC3=O)CCC12 [U73122] (first compound 0.8 µM, partner dose 0.4 µM), for which the “cleaved PARP positive nuclei fraction” value came to 25.6%.
The same measure, in the same setting: then `Cc1cc(Nc2cc(N3CCN(C)CC3)nc(/C=C/c3ccccc3)n2)n[nH]1` + CCCCCCCCCCCC1=C(O)C(=O)C=C(O)C1=O [Embelin] (first compound 0.04 µM, partner dose 1.2 µM), with 118%.
In the case of `C[C@@H](Oc1cc(-c2cnn(C3CCNCC3)c2)cnc1N)c1c(Cl)ccc(F)c1Cl` [Crizotinib] + Cc1cc([N+](=O)[O-])ccc1NS(=O)(=O)c1cc(Cl)ccc1Cl [FH535] (first compound 0.2 µM, partner dose 1 µM), the “cleaved PARP positive nuclei fraction” value came out at 84.2%.
For the compound `Nc1ccn([C@@H]2O[C@H](CO)[C@@H](O)C2(F)F)c(=O)n1` [gemcitabine] + O=C(Nc1cccc(Cl)c1)Nc1ncc(CCNc2ncnc3ccsc23)s1 [SNS314] (first compound 0.0004 µM, partner dose 0.0008 µM), the “cleaved PARP positive nuclei fraction” value was found to be 90.3%.
Take `O=C(O)[C@@H]1[O][Sb](=[O])([O][Sb]2(=[O])[O][C@H]([C@H](O)CO)[C@H](O)[C@H](C(=O)O)[O]2)[O][C@H]([C@H](O)CO)[C@@H]1O` (stereo partly specified) [stibogluconate] + CC(C)CCN1c2nc(Nc3cc(F)c(O)c(F)c3)ncc2N(C)C(=O)C1C [BID1870] (first compound 2 µM, partner dose 0.2 µM): the “cleaved PARP positive nuclei fraction” value was 75.7%.
Same read-out and setting: the result for `C=C(c1ccc(C(=O)O)cc1)c1cc2c(cc1C)C(C)(C)CCC2(C)C` [Bexarotene] + COc1ccc2c(c1)CCC1C2CCC2(C)C(NCCCCCCN3C(=O)C=CC3=O)CCC12 [U73122] (first compound 2 µM, partner dose 0.4 µM) reads 67.3%; that for `C=C(c1ccc(C(=O)O)cc1)c1cc2c(cc1C)C(C)(C)CCC2(C)C` [Bexarotene] + Oc1nc(-c2ccc(C(F)(F)F)cc2)nc2c1CSCC2 [XAV939] (first compound 2 µM, partner dose 2 µM), 109%.
On the same count and under the same terms, the result for `CS(=O)(=O)CCNCc1ccc(-c2ccc3ncnc(Nc4ccc(OCc5cccc(F)c5)c(Cl)c4)c3c2)o1` [lapatinib] + NC(=O)Nc1cc(-c2cccc(F)c2)sc1C(=O)N[C@H]1CCCNC1 [AZD7762] (first compound 0.8 µM, partner dose 0.02 µM) reads 64.1%.
